Measurements reported in PubChem BioAssay AID1259405 (NCATS, 2018)

Purpose: 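Silenced genes that increase secreted GFP made by CHO cells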 (primary screen)
System: Chinese hamster CHO-K1 ovary cells with stable secreted eGFP expression
Knock-down reagent: single siRNA against mouse genes, 0.8 pmol siRNA per well (2 µl of 400 nM stock)
Time to read-out: 3 days
Measured: 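Per-well intracellular GFP measured by laser scanning cytometry, plus viability from ATP luminescence, each relative to plate median of non-targeting control wells, in %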
Scale: GFP, % of control: higher = more GFP per well, higher productivity; viability (ATP), % of control: higher = more viable cells (more ATP)
Hit rule: 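Called active when intracellular GFP, relative to negative control, is at or above 120%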
Here is an unselected part of about 50,000 reagents. About 4,000 of all reagents (8%) count as active. 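Mouse siRNA library applied to hamster cells; one well for each siRNA.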 Unmarked entries are inactive.

For Echdc1 (GeneID 52665) [SID363574990], how do the results read?
GFP, % of control: 86.3; viability (ATP), % of control: 92.8

How did the screen score Echdc1 (GeneID 52665) [SID363580622]?
GFP, % of control: 44.5; viability (ATP), % of control: 60.4

With Echdc1 (GeneID 52665) [SID363582734], what was measured?
GFP, % of control: 95.3; viability (ATP), % of control: 88

For Mipep (GeneID 70478) [SID363574273], how do the results read?
GFP, % of control: 75; viability (ATP), % of control: 80

Which result is listed for Mipep (GeneID 70478) [SID363575329]?
GFP, % of control: 71.4; viability (ATP), % of control: 80.4

What is on record for Mipep (GeneID 70478) [SID363579905]?
GFP, % of control: 85.7; viability (ATP), % of control: 74.8

What did the screen give for Pparg (GeneID 19016) [SID363544916]?
GFP, % of control: 62.4; viability (ATP), % of control: 87.6

What did the screen give for Pparg (GeneID 19016) [SID363551244]?
GFP, % of control: 51.5; viability (ATP), % of control: 80.9

With Pparg (GeneID 19016) [SID363557793], what does the deposit list?
GFP, % of control: 124 (active); viability (ATP), % of control: 112

What did the screen give for Tas2r131 (GeneID 387356) [SID363556262]?
GFP, % of control: 74.6; viability (ATP), % of control: 81.8

For Tas2r131 (GeneID 387356) [SID363586712], how do the results read?
GFP, % of control: 92.8; viability (ATP), % of control: 55.1

What did the screen give for Tas2r131 (GeneID 387356) [SID363588820]?
GFP, % of control: 87.7; viability (ATP), % of control: 53.6

For Coro2a (GeneID 107684) [SID363541093], what was measured?
GFP, % of control: 102; viability (ATP), % of control: 60.2

Which result is listed for Coro2a (GeneID 107684) [SID363555720]?
GFP, % of control: 78.9; viability (ATP), % of control: 75.2

For Coro2a (GeneID 107684) [SID363566009], how do the results read?
GFP, % of control: 135 (active); viability (ATP), % of control: 66.2

With Csn1s2b (GeneID 12992) [SID363550024], how do the results read?
GFP, % of control: 90.1; viability (ATP), % of control: 69.1

For Csn1s2b (GeneID 12992) [SID363564533], what does the deposit list?
GFP, % of control: 62.4; viability (ATP), % of control: 78.7

Which result is listed for Csn1s2b (GeneID 12992) [SID363588078]?
GFP, % of control: 107; viability (ATP), % of control: 104

Which result is listed for Eps8 (GeneID 13860) [SID363581771]?
GFP, % of control: 54.1; viability (ATP), % of control: 64.1

Which result is listed for Eps8 (GeneID 13860) [SID363589265]?
GFP, % of control: 126 (active); viability (ATP), % of control: 81.2

For Derl3 (GeneID 70377) [SID363544301], what was measured?
GFP, % of control: 118; viability (ATP), % of control: 97.8

How did the screen score Derl3 (GeneID 70377) [SID363550629]?
GFP, % of control: 68.4; viability (ATP), % of control: 83.4

What is on record for Derl3 (GeneID 70377) [SID363557178]?
GFP, % of control: 64.1; viability (ATP), % of control: 76.5

How did the screen score Scara5 (GeneID 71145) [SID363569217]?
GFP, % of control: 157 (active); viability (ATP), % of control: 148

Which result is listed for Scara5 (GeneID 71145) [SID363583649]?
GFP, % of control: 48.1; viability (ATP), % of control: 61.9

For Dnah14 (GeneID 240960) [SID363542686], how do the results read?
GFP, % of control: 47.2; viability (ATP), % of control: 63.3

For Dnah14 (GeneID 240960) [SID363546203], how do the results read?
GFP, % of control: 61.4; viability (ATP), % of control: 55.3

For Dnah14 (GeneID 240960) [SID363547959], what does the deposit list?
GFP, % of control: 37.6; viability (ATP), % of control: 67.5

Called active, among the entries above:
Pparg (GeneID 19016) [SID363557793]: GFP, % of control = 124 (active); viability (ATP), % of control = 112
Coro2a (GeneID 107684) [SID363566009]: GFP, % of control = 135 (active); viability (ATP), % of control = 66.2
Eps8 (GeneID 13860) [SID363589265]: GFP, % of control = 126 (active); viability (ATP), % of control = 81.2
Scara5 (GeneID 71145) [SID363569217]: GFP, % of control = 157 (active); viability (ATP), % of control = 148
